Chains of the proteins cited; added tags and fusions are not shown. Lines headed by an entry give the natural chain unless they say otherwise; changes in a name come on top.
UniProt O43390: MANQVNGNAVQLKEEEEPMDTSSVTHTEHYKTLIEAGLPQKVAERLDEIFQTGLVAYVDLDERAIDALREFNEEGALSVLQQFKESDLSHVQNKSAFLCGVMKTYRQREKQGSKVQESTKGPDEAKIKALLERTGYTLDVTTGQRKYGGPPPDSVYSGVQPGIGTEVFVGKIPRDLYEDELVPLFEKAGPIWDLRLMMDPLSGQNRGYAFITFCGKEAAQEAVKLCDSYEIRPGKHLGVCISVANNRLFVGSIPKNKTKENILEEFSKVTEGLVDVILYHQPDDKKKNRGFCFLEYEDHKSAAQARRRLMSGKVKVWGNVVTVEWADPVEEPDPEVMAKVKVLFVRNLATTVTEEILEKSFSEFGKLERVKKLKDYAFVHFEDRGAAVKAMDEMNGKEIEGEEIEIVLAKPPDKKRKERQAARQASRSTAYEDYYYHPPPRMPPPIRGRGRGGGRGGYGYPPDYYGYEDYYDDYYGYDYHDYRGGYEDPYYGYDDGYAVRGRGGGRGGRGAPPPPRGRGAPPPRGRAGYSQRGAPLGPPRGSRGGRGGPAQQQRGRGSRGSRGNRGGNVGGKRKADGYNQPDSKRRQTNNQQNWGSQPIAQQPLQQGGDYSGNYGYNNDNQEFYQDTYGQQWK
UniProt P52597: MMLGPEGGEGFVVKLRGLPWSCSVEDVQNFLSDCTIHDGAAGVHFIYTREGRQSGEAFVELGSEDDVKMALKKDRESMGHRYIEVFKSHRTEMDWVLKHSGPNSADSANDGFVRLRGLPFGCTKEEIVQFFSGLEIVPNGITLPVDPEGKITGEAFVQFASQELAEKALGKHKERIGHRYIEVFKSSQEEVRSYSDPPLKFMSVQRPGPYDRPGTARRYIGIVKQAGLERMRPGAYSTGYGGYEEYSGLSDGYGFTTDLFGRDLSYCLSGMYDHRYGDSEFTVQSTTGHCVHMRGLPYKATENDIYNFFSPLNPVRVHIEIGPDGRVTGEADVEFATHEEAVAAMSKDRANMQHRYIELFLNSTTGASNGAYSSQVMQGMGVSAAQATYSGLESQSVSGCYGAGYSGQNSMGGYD
UniProt O60725, whole entry, looked up: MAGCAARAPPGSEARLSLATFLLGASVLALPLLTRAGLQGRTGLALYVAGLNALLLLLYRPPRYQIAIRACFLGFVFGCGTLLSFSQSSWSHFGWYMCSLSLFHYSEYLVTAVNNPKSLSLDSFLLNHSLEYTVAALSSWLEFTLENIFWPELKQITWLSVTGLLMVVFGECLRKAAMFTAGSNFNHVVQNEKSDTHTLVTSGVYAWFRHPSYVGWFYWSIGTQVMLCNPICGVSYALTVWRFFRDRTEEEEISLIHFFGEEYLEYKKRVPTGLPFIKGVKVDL
UniProt O15347: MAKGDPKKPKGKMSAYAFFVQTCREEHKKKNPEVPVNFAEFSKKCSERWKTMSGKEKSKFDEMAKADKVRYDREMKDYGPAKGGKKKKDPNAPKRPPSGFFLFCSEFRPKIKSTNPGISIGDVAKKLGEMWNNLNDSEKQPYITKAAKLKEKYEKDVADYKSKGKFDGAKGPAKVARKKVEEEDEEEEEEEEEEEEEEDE
UniProt P07910: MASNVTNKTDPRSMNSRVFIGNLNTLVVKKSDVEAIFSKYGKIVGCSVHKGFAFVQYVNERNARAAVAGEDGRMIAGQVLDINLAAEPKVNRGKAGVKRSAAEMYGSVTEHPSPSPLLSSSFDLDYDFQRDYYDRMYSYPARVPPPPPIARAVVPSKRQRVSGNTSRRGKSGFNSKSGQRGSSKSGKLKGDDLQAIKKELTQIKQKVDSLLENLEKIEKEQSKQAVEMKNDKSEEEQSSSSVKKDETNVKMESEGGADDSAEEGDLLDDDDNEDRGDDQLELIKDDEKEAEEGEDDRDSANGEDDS
UniProt Q9Y2F5: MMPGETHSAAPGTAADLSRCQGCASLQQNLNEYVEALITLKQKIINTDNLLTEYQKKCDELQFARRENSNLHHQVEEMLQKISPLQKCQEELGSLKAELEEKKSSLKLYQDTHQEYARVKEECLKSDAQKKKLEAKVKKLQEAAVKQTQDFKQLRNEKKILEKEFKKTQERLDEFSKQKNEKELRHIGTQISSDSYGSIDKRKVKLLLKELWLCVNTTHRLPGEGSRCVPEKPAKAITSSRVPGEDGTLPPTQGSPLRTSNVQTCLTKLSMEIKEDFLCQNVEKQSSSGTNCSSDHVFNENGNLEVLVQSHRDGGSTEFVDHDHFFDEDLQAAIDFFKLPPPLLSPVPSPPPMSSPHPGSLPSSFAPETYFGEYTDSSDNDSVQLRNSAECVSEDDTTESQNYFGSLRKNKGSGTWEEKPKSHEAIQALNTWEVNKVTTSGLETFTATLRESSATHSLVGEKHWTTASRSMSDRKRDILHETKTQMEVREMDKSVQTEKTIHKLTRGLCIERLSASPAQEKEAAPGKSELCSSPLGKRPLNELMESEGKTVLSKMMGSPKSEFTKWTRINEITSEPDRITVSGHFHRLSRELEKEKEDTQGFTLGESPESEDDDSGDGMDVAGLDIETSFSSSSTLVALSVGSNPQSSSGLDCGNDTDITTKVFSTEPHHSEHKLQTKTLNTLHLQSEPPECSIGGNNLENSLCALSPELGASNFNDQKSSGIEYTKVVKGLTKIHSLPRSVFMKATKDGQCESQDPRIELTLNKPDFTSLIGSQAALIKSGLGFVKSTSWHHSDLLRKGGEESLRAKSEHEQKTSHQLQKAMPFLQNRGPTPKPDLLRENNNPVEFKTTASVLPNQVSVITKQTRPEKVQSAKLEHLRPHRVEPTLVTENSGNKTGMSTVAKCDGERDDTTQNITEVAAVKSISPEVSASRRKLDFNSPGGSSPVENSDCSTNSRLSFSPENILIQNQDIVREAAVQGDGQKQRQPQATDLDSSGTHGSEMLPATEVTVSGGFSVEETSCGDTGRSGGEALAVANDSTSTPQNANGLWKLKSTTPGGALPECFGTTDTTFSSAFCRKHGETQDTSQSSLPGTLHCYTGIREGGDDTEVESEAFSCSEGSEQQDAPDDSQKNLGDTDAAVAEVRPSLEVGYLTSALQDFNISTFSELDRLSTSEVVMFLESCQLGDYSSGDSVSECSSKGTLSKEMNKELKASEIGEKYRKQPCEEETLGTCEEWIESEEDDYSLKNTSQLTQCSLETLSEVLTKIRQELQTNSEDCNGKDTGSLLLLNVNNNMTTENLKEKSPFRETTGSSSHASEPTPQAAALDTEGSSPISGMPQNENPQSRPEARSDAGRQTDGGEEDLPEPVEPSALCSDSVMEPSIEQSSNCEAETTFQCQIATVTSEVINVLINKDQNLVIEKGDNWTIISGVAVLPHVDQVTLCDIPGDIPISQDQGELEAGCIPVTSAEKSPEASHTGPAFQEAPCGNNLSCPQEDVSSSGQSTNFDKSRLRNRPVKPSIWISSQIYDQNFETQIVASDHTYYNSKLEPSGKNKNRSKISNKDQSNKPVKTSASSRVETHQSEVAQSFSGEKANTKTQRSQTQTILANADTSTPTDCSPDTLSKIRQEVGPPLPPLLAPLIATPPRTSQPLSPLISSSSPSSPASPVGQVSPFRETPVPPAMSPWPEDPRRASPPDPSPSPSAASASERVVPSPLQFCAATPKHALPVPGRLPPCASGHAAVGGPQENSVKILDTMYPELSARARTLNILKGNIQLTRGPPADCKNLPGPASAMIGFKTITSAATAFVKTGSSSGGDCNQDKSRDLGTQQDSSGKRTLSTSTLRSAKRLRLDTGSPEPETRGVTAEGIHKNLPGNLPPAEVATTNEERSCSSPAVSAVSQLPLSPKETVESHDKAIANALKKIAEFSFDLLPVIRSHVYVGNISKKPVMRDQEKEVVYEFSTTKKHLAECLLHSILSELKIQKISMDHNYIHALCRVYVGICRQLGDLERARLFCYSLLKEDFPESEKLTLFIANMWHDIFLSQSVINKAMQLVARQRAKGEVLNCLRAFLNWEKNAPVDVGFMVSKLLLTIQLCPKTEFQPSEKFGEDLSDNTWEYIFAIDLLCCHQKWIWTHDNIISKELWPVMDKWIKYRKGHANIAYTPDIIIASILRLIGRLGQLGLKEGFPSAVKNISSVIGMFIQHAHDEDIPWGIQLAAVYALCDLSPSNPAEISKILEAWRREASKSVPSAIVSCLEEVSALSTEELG
UniProt Q03014: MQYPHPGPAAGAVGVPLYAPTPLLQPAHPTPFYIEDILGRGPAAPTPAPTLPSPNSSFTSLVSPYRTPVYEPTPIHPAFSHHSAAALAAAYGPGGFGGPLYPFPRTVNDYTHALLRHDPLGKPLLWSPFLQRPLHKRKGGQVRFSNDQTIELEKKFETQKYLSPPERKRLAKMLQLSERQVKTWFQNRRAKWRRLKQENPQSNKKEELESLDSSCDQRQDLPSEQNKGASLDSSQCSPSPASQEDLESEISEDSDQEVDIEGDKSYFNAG
UniProt O75146: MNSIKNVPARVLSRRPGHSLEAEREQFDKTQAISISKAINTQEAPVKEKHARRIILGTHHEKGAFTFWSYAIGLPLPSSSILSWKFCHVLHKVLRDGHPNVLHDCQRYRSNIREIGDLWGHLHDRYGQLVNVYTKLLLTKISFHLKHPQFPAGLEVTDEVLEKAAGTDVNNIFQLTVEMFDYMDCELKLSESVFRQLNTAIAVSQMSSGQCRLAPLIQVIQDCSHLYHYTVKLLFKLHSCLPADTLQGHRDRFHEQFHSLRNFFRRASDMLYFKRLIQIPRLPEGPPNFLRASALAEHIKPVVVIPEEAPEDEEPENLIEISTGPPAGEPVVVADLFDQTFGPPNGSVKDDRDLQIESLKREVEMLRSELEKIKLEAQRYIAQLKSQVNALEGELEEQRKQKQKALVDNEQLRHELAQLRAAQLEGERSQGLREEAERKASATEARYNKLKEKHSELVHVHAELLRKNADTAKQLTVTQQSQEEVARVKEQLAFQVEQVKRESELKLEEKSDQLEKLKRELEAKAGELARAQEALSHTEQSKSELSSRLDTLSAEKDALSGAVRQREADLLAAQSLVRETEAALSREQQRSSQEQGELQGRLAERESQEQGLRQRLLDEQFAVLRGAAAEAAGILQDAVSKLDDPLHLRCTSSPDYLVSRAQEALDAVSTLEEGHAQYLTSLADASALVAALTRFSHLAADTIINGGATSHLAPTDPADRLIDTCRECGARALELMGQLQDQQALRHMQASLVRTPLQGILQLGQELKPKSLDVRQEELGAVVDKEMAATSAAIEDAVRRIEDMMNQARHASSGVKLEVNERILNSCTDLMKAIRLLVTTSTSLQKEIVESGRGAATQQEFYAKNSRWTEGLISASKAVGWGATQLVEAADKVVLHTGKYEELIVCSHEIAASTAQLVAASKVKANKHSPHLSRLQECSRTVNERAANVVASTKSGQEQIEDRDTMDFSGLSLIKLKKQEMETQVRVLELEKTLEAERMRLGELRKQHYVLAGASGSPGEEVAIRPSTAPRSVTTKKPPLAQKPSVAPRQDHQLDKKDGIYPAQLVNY
UniProt Q53GQ0: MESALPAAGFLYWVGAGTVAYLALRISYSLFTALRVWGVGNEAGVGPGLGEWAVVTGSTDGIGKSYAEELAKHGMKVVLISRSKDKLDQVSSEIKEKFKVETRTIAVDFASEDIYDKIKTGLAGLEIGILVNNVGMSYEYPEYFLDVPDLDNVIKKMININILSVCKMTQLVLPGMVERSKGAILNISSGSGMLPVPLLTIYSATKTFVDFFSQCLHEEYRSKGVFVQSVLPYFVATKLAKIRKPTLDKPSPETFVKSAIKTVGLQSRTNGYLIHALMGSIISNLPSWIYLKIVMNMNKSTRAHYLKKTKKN
UniProt Q96JB3: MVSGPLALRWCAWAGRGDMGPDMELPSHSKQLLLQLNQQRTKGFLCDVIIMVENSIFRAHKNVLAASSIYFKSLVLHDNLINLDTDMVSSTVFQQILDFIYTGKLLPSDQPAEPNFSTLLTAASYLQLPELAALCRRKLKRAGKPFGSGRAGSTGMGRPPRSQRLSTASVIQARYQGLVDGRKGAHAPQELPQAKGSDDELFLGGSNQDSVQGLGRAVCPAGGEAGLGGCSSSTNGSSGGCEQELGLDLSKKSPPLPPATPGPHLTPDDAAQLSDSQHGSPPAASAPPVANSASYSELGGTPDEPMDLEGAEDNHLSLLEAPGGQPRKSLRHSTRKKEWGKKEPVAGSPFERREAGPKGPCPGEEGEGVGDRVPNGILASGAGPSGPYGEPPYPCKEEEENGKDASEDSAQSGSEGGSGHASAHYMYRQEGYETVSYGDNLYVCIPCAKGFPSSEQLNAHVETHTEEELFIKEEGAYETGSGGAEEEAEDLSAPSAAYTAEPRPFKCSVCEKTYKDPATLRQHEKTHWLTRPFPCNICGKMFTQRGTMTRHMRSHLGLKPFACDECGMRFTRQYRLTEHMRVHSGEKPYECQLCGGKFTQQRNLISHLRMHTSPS
UniProt P05114: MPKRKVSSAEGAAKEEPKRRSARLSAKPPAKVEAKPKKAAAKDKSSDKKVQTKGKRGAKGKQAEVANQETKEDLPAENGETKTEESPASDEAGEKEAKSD

This is one part of the list.
What follows are targets tested with CS(=O)(=O)c1ccc(-c2cnc(N)c(C(=O)Nc3ccccc3)n2)cc1 (assay: log2 fold change, soluble protein after heating vs DMSO (PISA); higher = thermal stabilisation; K562 cells, 10 uM, 30 min; active = over 0.2 and 3.5 SD of the protein, either way, in both replicates (recomputed)).
Summary of the method: (§1)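 For each measurement, 10 μM compound was applied for 30 min to K562 cells at 2×10^6 cells/mL. Aliquots were heated for 3 min across 48°C-58°C, pooled, and extracted in PBS with 0.5% NP-40 at 4°C; the supernatant after 21,000xg for 90 min was soluble protein. This was quantified by TMTpro 16plex LC-MS/MS with channel sums equalised, and thermal stability was reported relative to control samples from duplicates, on a log2 fold-change scale.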
HNRNPR (UniProt O43390) was tested, and the log2 fold change was inactive: -0.036.
HSP90AB3P (UniProt Q58FF7) was tested, and the log2 fold change was inactive: 0.004.
HNRNPK isoform 3 (UniProt P61978) was tested, and the log2 fold change was inactive: -0.056.
In the case of HSPA8 (UniProt E9PK54), the log2 fold change is reported as inactive: -0.05.
HMOX2 (UniProt P30519) was tested, and the log2 fold change was inactive: 0.07.
In the case of HNRNPF (UniProt P52597), the log2 fold change is reported as inactive: -0.016.
With HSPA8 (UniProt E9PN89) the log2 fold change was inactive: 0.12.
HIST2H3A (UniProt Q71DI3) was tested, and the log2 fold change was inactive: -0.106.
For HMGN2 (UniProt P05204), the log2 fold change was inactive: -0.093.
For ICMT (UniProt O60725), the log2 fold change was inactive: 0.099.
In the case of HK2 (UniProt P52789), the log2 fold change is reported as inactive: -0.156.
For HRAS (UniProt P01112), the log2 fold change was inactive: -0.064.
In the case of HNRNPH2 (UniProt P55795), the log2 fold change is reported as inactive: 0.029.
In the case of HOOK3 (UniProt Q86VS8), the log2 fold change is reported as inactive: -0.042.
For ICAM1 (UniProt P05362), the log2 fold change was inactive: 0.052.
HMGB3 (UniProt O15347) was tested, and the log2 fold change was inactive: 0.045.
In the case of HIST2H2BF isoform 2 (UniProt Q5QNW6), the log2 fold change is reported as inactive: -0.049.
With HINT2 (UniProt Q9BX68) the log2 fold change was inactive: -0.011.
HNRNPC isoform 2 (UniProt P07910) was tested, and the log2 fold change was inactive: -0.176.
In the case of ICE1 (UniProt Q9Y2F5), the log2 fold change is reported as inactive: -0.016.
With HHEX (UniProt Q03014) the log2 fold change was inactive: -0.014.
In the case of HS1BP3 (UniProt Q53T59), the log2 fold change is reported as inactive: 0.06.
HIP1R (UniProt O75146) was tested, and the log2 fold change was inactive: 0.016.
For HNRNPUL2 (UniProt Q1KMD3), the log2 fold change was inactive: -0.092.
HPCAL1 (UniProt P37235) was tested, and the log2 fold change was inactive: 0.015.
HSD17B12 (UniProt Q53GQ0) was tested, and the log2 fold change was inactive: 0.046.
With HIC2 (UniProt Q96JB3) the log2 fold change was inactive: -0.037.
With HNRNPH1 (UniProt P31943) the log2 fold change was inactive: 0.027.
HMGN1 (UniProt P05114) was tested, and the log2 fold change was inactive: -0.067.
HIST2H2BC (UniProt Q6DN03) was tested, and the log2 fold change was inactive: 0.054.
In the case of HIKESHI (UniProt Q53FT3), the log2 fold change is reported as inactive: -0.007.
With HNRNPUL1 (UniProt Q9BUJ2) the log2 fold change was inactive: 0.007.
With HOMER1 (UniProt Q86YM7) the log2 fold change was inactive: -0.011.

The targets below were run with C[C@@H](Oc1cc(-c2cnn(C3CCNCC3)c2)cnc1N)c1c(Cl)ccc(F)c1Cl [crizotinib] in the same assay as above.
Summary of the method: as §1
With HNRNPR (UniProt O43390) the log2 fold change was inactive: -0.291.
HSP90AB3P (UniProt Q58FF7) was tested, and the log2 fold change was inactive: 0.001.
With HNRNPK isoform 3 (UniProt P61978) the log2 fold change was inactive: -0.009.
With HSPA8 (UniProt E9PK54) the log2 fold change was inactive: -0.023.
For HMOX2 (UniProt P30519), the log2 fold change was inactive: -0.03.
In the case of HNRNPF (UniProt P52597), the log2 fold change is reported as inactive: -0.152.
In the case of HSPA8 (UniProt E9PN89), the log2 fold change is reported as inactive: 0.063.
With HIST2H3A (UniProt Q71DI3) the log2 fold change was inactive: -0.327.
HMGN2 (UniProt P05204) was tested, and the log2 fold change was inactive: 0.051.
ICMT (UniProt O60725) was tested, and the log2 fold change was inactive: 0.074.
HK2 (UniProt P52789) was tested, and the log2 fold change was inactive: 0.082.
HRAS (UniProt P01112) was tested, and the log2 fold change was inactive: 0.18.
For HNRNPH2 (UniProt P55795), the log2 fold change was inactive: -0.171.
For HOOK3 (UniProt Q86VS8), the log2 fold change was inactive: -0.123.
In the case of ICAM1 (UniProt P05362), the log2 fold change is reported as inactive: 0.142.
For HMGB3 (UniProt O15347), the log2 fold change was inactive: 0.026.
For HIST2H2BF isoform 2 (UniProt Q5QNW6), the log2 fold change was inactive: -0.095.
In the case of HINT2 (UniProt Q9BX68), the log2 fold change is reported as inactive: 0.06.
For HNRNPC isoform 2 (UniProt P07910), the log2 fold change was inactive: -0.061.
With ICE1 (UniProt Q9Y2F5) the log2 fold change was inactive: 0.003.
For HHEX (UniProt Q03014), the log2 fold change was inactive: -0.027.
In the case of HS1BP3 (UniProt Q53T59), the log2 fold change is reported as inactive: -0.044.
For HIP1R (UniProt O75146), the log2 fold change was inactive: -0.1.
HNRNPUL2 (UniProt Q1KMD3) was tested, and the log2 fold change was inactive: -0.033.
With HPCAL1 (UniProt P37235) the log2 fold change was inactive: 0.011.
With HSD17B12 (UniProt Q53GQ0) the log2 fold change was inactive: 0.191.
For HIC2 (UniProt Q96JB3), the log2 fold change was inactive: 0.067.
For HNRNPH1 (UniProt P31943), the log2 fold change was inactive: -0.171.
With HMGN1 (UniProt P05114) the log2 fold change was inactive: 0.055.
In the case of HIST2H2BC (UniProt Q6DN03), the log2 fold change is reported as inactive: -0.109.
For HIKESHI (UniProt Q53FT3), the log2 fold change was inactive: 0.067.
In the case of HNRNPUL1 (UniProt Q9BUJ2), the log2 fold change is reported as inactive: -0.023.
With HOMER1 (UniProt Q86YM7) the log2 fold change was inactive: -0.015.

What follows are targets tested with C[C@@H]1COCCN1C2=NC(=NC(=C2)C3(CC3)S(=O)(=O)C)C4=C5C=CNC5=CC=C4 in the same assay as above.
Summary of the method: as §1
With HNRNPR (UniProt O43390) the log2 fold change was inactive: -0.209.
HNRNPK isoform 3 (UniProt P61978) was tested, and the log2 fold change was inactive: -0.237.
In the case of HSPA8 (UniProt E9PK54), the log2 fold change is reported as inactive: -0.272.
HMOX2 (UniProt P30519) was tested, and the log2 fold change was inactive: 0.022.
With HNRNPF (UniProt P52597) the log2 fold change was inactive: 0.047.
HSPA8 (UniProt E9PN89) was tested, and the log2 fold change was inactive: 0.024.
HIST2H3A (UniProt Q71DI3) was tested, and the log2 fold change was inactive: -0.204.
HMGN2 (UniProt P05204) was tested, and the log2 fold change was inactive: -0.201.
For ICMT (UniProt O60725), the log2 fold change was inactive: 0.331.
In the case of HK2 (UniProt P52789), the log2 fold change is reported as inactive: 0.03.
For HRAS (UniProt P01112), the log2 fold change was inactive: -0.129.
HNRNPH2 (UniProt P55795) was tested, and the log2 fold change was inactive: 0.096.
HOOK3 (UniProt Q86VS8) was tested, and the log2 fold change was inactive: -0.05.
In the case of ICAM1 (UniProt P05362), the log2 fold change is reported as inactive: 0.026.
With HMGB3 (UniProt O15347) the log2 fold change was inactive: -0.018.
For HIST2H2BF isoform 2 (UniProt Q5QNW6), the log2 fold change was inactive: -0.279.
In the case of HNRNPC isoform 2 (UniProt P07910), the log2 fold change is reported as inactive: -0.239.
ICE1 (UniProt Q9Y2F5) was tested, and the log2 fold change was inactive: 0.093.
HHEX (UniProt Q03014) was tested, and the log2 fold change was inactive: -0.104.
With HS1BP3 (UniProt Q53T59) the log2 fold change was inactive: 0.028.
In the case of HIP1R (UniProt O75146), the log2 fold change is reported as inactive: 0.058.
HNRNPUL2 (UniProt Q1KMD3) was tested, and the log2 fold change was inactive: -0.05.
HPCAL1 (UniProt P37235) was tested, and the log2 fold change was inactive: 0.08.
In the case of HSD17B12 (UniProt Q53GQ0), the log2 fold change is reported as inactive: 0.012.
HIC2 (UniProt Q96JB3) was tested, and the log2 fold change was inactive: -0.079.
In the case of HNRNPH1 (UniProt P31943), the log2 fold change is reported as inactive: -0.012.
In the case of HMGN1 (UniProt P05114), the log2 fold change is reported as inactive: -0.034.
With HIST2H2BC (UniProt Q6DN03) the log2 fold change was inactive: -0.317.
For HIKESHI (UniProt Q53FT3), the log2 fold change was inactive: 0.182.
With HNRNPUL1 (UniProt Q9BUJ2) the log2 fold change was inactive: -0.016.
In the case of HOMER1 (UniProt Q86YM7), the log2 fold change is reported as inactive: 0.071.

Reference: the supplement of paper PMC10849652
